Patent US20210220489A1, “AMYGDALAR NEURAL ENSEMBLE THAT ENCODES THE UNPL[…] PAIN” (The Board of Trustees of the Leland Stanford Junior …, priority 2020, published 2021)

What was measured:
noci-TRAP^hM4 mice [1] = test: Elevated plus maze; format: in vivo
noci-TRAP^hM4 mice [2] = test: Sucrose-water preference assay; format: in vivo

**Q.** What does the source list for `C[N+]1([O-])CCN(C2=Nc3cc(Cl)ccc3Nc3ccccc32)CC1` [CNO, clozapine-N-oxide]?
**A.** average velocity (noci-TRAP^hM4 mice [1]; CNO 10 mg/kg versus saline): No effect; total distance traveled (noci-TRAP^hM4 mice [1]; CNO 10 mg/kg versus saline): No effect; visits to and occupancy of the open arms (noci-TRAP^hM4 mice [1]; saline or CNO): equivalent; % sucrose preference over water (noci-TRAP^hM4 mice [2]; first and second days (Sessions 1 and 2), versus saline): significant sucrose preference; sucrose preference development (noci-TRAP^hM4 mice [2]; relative to controls): no retarding effects; lick rates (noci-TRAP^hM4 mice [2]; relative to controls, 10% sucrose spout): no retarding effects; sucrose reward (noci-TRAP^hM4 mice [2]; sucrose-naïve conditions): enhanced
